# For at least one compound, name, drawing or mass did not settle the structure.
# Test system: NeuN+ve hilar neurons of the dentate gyrus
# Assay: NeuN staining of hilar neurons of the dentate gyrus 7 days post-TBI
# Type: in vivo, mouse
# Conditions: inhibitor 1 mg/kg i.p. 30 minutes prior to each IV TIMP3, ipsilateral
# Text: The mouse controlled cortical impact (CCI) injury model was used as previously described. In brief, mice were anesthetized with 5% isoflurane and 1:1 O2:N2 mixture. Animals were mounted on a stereotaxic frame and were secured by ear bars and an incisor bar. Anesthesia was maintained with 2.0% isoflurane and 1:1 O2:N2 mixture. A 5-mm-diameter craniotomy was made midway between bregma and lambda on the right side, with the medial edge of the craniotomy 1 mm lateral to midline. Injury was produced using a magnetic impactor mounted at an angle of 110° from the vertical plane. A single impact at a velocity of 4+/−0.2 m/s was used inflict a moderate to severe injury (1.2-1.3 mm impact depth). After injury, the incision was closed. Sham animals underwent identical surgeries except for impact injury. Core body temperature was monitored using a rectal thermometer and maintained at 36.8° C.-37.2° C. with a heating pad throughout the procedure. For treatments, TIMP3 (60.0 μg/kg) or vehicle control (PBS) administration was performed at 2, 24, and 48 hrs after injury via tail vein injections in a total volume of 125 μl. Animal research was performed with approval of the Institutional Animal Care and Use Committee at ISIS Services LLC (San Carlos, Calif., USA). […]
smiles,measurement,value
"CO[C@H]1C[C@@H]2CC[C@@H](C)[C@@](O)(O2)C(=O)C(=O)N2CCCC[C@H]2C(=O)O[C@H]([C@H](C)C[C@@H]2CC[C@@H](O)[C@H](OC)C2)CC(=O)[C@H](C)/C=C(\C)[C@@H](O)[C@@H](OC)C(=O)[C@H](C)C[C@H](C)/C=C/C=C/C=C/1C [rapamycin, Rapamycin, reference compound]","survival of NeuN positive mature neurons, change from TBI+TIMP3",unaffected
